From patent publication US20240002463A1, “CHEMOGENETIC RECEPTORS AND METHODS OF MAKING AND USING” (Howard Hughes Medical Institute, priority 2022, published 2024)
For at least one compound, name, drawing or mass did not settle the structure.

The chains behind the UniProt entries cited, without tags or fusion partners. A line that says so, or that is headed by a name, gives the form on record, which may keep a tag or linker.
UniProt P36544, with tags, fused parts or gaps: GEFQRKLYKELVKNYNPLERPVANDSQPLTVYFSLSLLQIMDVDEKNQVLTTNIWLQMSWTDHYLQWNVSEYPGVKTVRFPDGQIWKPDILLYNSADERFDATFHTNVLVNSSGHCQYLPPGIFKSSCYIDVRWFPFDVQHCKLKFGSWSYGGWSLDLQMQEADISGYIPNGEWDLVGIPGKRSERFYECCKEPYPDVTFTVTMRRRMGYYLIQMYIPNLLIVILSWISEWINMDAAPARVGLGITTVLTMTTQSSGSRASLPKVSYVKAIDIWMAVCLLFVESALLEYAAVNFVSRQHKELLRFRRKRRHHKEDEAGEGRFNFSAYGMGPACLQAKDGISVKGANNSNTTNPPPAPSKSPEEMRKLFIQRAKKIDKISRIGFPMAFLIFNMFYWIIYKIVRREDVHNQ
UniProt P36544, with tags, fused parts or gaps T225I/M226I: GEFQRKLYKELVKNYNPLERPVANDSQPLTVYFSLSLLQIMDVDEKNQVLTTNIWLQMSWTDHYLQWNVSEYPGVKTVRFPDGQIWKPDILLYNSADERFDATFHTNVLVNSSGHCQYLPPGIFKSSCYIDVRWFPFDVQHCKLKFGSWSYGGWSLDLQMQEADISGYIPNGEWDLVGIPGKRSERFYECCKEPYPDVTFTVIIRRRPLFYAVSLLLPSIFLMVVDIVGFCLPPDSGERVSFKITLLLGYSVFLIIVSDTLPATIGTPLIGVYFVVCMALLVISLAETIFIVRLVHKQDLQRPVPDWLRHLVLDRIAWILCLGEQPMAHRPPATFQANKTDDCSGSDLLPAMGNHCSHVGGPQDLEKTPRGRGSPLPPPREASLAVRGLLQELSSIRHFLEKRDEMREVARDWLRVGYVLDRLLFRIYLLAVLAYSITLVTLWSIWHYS

What was measured:
α7-GlyR = molecular target: T1, α7-GlyR (Homo sapiens, UniProt P36544); assay: agonist potency/activity at unmodified α7-GlyR chimeric channel; assay type: cell-based
T1 construct: expressed in transfected cells; host or cells: HEK-293 (transient transfection)

α7-5HT3 = molecular target: T2, α7-5HT3 (Homo sapiens, UniProt P36544); assay: agonist potency/activity at unmodified α7-5HT3 chimeric channel; assay type: cell-based
T2 construct: expressed in transfected cells; host or cells: HEK-293 (transient transfection)

## COC(=O)[C@H]1[C@@H](OC(=O)c2ccccc2)C[C@@H]2CC[C@H]1N2C [Cocaine]
α7-GlyR
  agonist activity at unmodified chimeric receptor α7-GlyR: does not show agonist activity
α7-5HT3
  agonist activity at unmodified chimeric receptor α7-5HT3: does not show agonist activity
